# Laboratory results published in the supplement of paper PMC3334620.
# In all, about 33,000 sequences were measured (“E-score (-0.5 to 0.5)”: median about -0.0034, highest 2% from about 0.25 on). This is one part of the list.
# Target: T1, Yap3 (UniProt P38749)
# T1 sequence: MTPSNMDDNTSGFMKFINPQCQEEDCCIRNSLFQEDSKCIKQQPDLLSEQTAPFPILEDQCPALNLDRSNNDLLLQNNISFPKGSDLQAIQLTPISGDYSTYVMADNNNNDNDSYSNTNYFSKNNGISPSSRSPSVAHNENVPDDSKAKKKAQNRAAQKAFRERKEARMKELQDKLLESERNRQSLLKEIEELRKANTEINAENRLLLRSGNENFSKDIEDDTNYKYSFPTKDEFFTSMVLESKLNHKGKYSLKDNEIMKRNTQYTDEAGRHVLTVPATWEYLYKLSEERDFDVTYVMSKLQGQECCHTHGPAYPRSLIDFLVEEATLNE
# Assay: PBM E-score (8-mer binding enrichment) (E-score (-0.5 to 0.5)); higher = stronger / more preferred TF binding
# Conditions: protein concentration: 100 nM; construct: GST-full length
# Method in brief: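 PURExpress in vitro transcription/translation supplied GST-tagged yeast transcription factors, either full-length or DNA-binding domain. Applied at about 100-200 nM to universal all-10-mer Agilent arrays double-stranded by primer extension, the bound protein was detected with fluorescent anti-GST. E-scores, modified Wilcoxon-Mann-Whitney statistics, were given by the Universal PBM Analysis Suite to ungapped eight-base words pooled with their reverse complements after masliner normalisation.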
row,Sequence,PBM E-score
1,ACGATCAA,0.0848
2,CCTCCACC,-0.31
3,CAACTGGC,-0.0753
4,AATAACGT,0.0995
5,CGTTAACA,0.0894
6,CGGGAGTC,-0.26
7,ATAACAGG,-0.0244
8,CATGGATA,0.0907
9,GCGAAAAC,0.0661
10,AACACTTA,0.119
11,CGTGTCGC,0.045
12,CACACTGG,-0.0659
13,CAATCAGA,0.00443
14,AGAAGCGA,0.0446
15,ACAATTAA,0.208
16,CACCAACC,0.0462
17,ACAGTCAG,0.0472
18,CTCGCTAC,-0.0448
19,GATAGTGA,0.189
20,CCAAGGGG,-0.158
21,AAGATGAG,-0.052
22,GAGCTAGC,0.0975
23,CCACGCGA,0.0898
24,AAGAGCAC,-0.0358
25,AAACCATA,0.0929

row,Sequence,PBM E-score
1,GAGCCATA,-0.114
2,CATGGGGC,-0.272
3,GCAGCCAA,0.113
4,CTCGGCTC,-0.161
5,CAGAAGTA,0.127
6,TCAACCCA,-0.00582
7,AGGTAAGC,0.0562
8,ATGAGTGA,0.229
9,GATAATCA,0.221
10,ATGTGAAG,0.0755
11,CATCATTC,0.0899
12,TGTAGTAA,0.128
13,AATTGAAA,0.189
14,GCTCTAAC,-0.12
15,CCAGAATC,-0.0407
16,ATTCTGAC,-0.0137
17,CACTGAGG,-0.188
18,CGAAATCA,0.216
19,CGAGAAGA,0.0591
20,CGAGTTGC,0.153
21,ATCGACCG,-0.0482
22,GCCTCACA,-0.00779
23,ATCGCGAA,0.149
24,AAGGCGAT,-0.0876
25,CTGGGCGA,-0.195

row,Sequence,PBM E-score
1,TGCACGAA,0.165
2,AGTGATAG,-0.0431
3,TCAAAAAA,0.185
4,CCAGCCGG,-0.164
5,TCAGTGGA,-0.16
6,ACAAACGA,0.199
7,ATCTGCAT,0.193
8,AAGTAACT,0.0661
9,ACTGTTAT,0.201
10,CTAACCCC,-0.281
11,GAGGGATA,-0.146
12,ACACTCCA,-0.0338
13,ATTACGTG,0.397
14,CGCTTACG,0.149
15,GGATCTAA,-0.182
16,CCATTGAA,0.0891
17,CTATCAGC,0.0169
18,GTCGGCTA,-0.103
19,GGATCGTA,-0.126
20,CCAAGACA,-0.0123
21,CTCGCGAC,0.068
22,TACGGGCA,-0.127
23,ATAGATAG,-0.0309
24,ACGCACAT,0.0722
25,AGTCTTTA,-0.0742

row,Sequence,PBM E-score
1,AGTATCAT,0.104
2,ACACGTCA,0.027
3,ATTCCTCA,0.0587
4,CCGAAACA,0.143
5,AGCTGGAA,-0.178
6,CTTGACTA,-0.029
7,AATCTGTG,-0.0142
8,AACTAGCG,0.141
9,CCAAGCAG,-0.091
10,AACCAGTC,0.0151
11,AGGCGTGG,-0.39
12,CTCATGAC,0.106
13,AGACGGCG,0.0525
14,ATACGGGG,-0.255
15,CTTTCGAC,-0.148
16,GCAACGGC,0.102
17,GGCACGTA,0.00791
18,AGTCGGAG,-0.168
19,CCTTGCGA,0.0356
20,AGGGGGTA,-0.4
21,AGCTGGCA,-0.0205
22,AAACTGGC,0.00917
23,ATCAGAAC,-0.0837
24,ACGCATAA,0.189
25,ACACATTA,0.0593

row,Sequence,PBM E-score
1,GCCACTAC,-0.123
2,AGCCCTGG,-0.383
3,GGCCCTCA,-0.287
4,ACAAAGCT,0.134
5,GTCATACA,0.0761
6,AAAGTACG,0.148
7,CGCAATTA,0.128
8,GTTTGATA,0.188
9,AATAGTAG,0.206
10,TGACCCAA,0.133
11,CTCTAGTC,-0.278
12,ATATTGCA,0.162
13,TAGCCAAA,0.061
14,ATTATACC,0.179
15,AACACACT,0.158
16,CCTAGCGC,-0.0445
17,CAACCGTC,-0.213
18,ACTTTCAC,0.136
19,GCCTTCAA,0.00934
20,ATATCGCC,0.0936
21,AGTGCATG,0.0892
22,CACCAATA,-0.00578
23,CGCACGTC,-0.0237
24,GAGCCGTA,0.0717
25,GCAATTCA,0.0218

row,Sequence,PBM E-score
1,CATGTAAC,0.0356
2,TAGAGTGA,-0.0618
3,AGCTGGCG,-0.254
4,CCCCACTC,-0.116
5,ACCTGCTC,-0.137
6,ACCAGATA,0.0786
7,AGACTAAT,-0.0727
8,AACGCTTA,0.0813
9,CGTTGTAG,0.0544
10,TATGCGAA,0.0891
11,AAGAGGTA,0.043
12,GACATCTC,-0.0535
13,ACCGTCAC,-0.173
14,CTTAGGCA,-0.211
15,CAAAGGAA,0.201
16,CATTTGGG,0.0228
17,AAGTCTAT,0.00548
18,CTGGGGTC,-0.128
19,AGGTATCG,0.136
20,CGCTATTA,0.0889
21,GACCCCGC,-0.105
22,ACTATTTG,0.155
23,AGTGGACG,0.0142
24,AACCTGTA,0.06
25,CTTGGCTA,-0.00074

row,Sequence,PBM E-score
1,ATGCCGAA,0.0391
2,ATTCGAAT,0.0256
3,GAAGACGA,0.119
4,ACGTTGCA,-0.0509
5,CCCAGGAA,-0.0841
6,CCACCCTC,0.0377
7,GGTGAACA,-0.183
8,AACTGAGG,0.0789
9,AATGACTG,0.101
10,AGCAATTA,0.085
11,CCTGGACG,-0.162
12,AACTAGGT,0.154
13,ACGTTCCA,0.1
14,ACGCAATC,0.0568
15,CGACAGAC,-0.0804
16,CGGAGGCA,-0.148
17,GTAACTAC,0.0999
18,AAATCTCT,-0.0251
19,AACCACAA,0.148
20,GCGCCTTA,0.0395
21,ATTCCGAC,0.127
22,CGAAGCCA,-0.0192

# Shown as tab-separated lines: part of the list above.
row	Sequence	PBM E-score
10	AACACTTA	0.119
11	CGTGTCGC	0.045
12	CACACTGG	-0.0659
13	CAATCAGA	0.00443
14	AGAAGCGA	0.0446

# Quoted at random: 3 records from the list, in no set order.
row,Sequence,PBM E-score
11,CCTGGACG,-0.162
21,ATTCCGAC,0.127
19,AACCACAA,0.148
